Measured values published in publication doi:10.1101/2025.01.16.633295.
These are yes or no findings as the source states them, for the method shown. Binding calls can cover weak binding; strength is not graded here. Where a sequence is shown, tags or fusion partners need not be part of it.

Biological target: Flag-DIC1B, purified
Test: pull-down

- binding: binds
B1: Myc-ANXA7, purified (protein, UniProt Q6IRJ7 1-485)
chain: MSYPGYPPTGYPPFPGYPPAGQESSFPTSGQYPYPSGFPPMGGGAYPPAPSGGYPGAGGYPSPGGYPAPGGYPGTLNPGGPPSYPGGQGFGAPPGGAGFSGYPQPPAQSYGGGPAQVPVPGGFPGGQMPSQYPGGQSPYPGQIDTESFSSYPAFSPVSLDYSSDPAAMTQGTQGTIRPASNFDAMRDAEILRKAMKGFGTDEQAIVDVVSNRSNDQRQQIKAAFKTMYGKDLIKDLKSELSGNMEELILALFMPPTYYDAWSLRKAIQGAGTQERVLIEILCTRTNQEIRDIVRCYQLEFGRELERDIRSDTSGHFERLLVSMCQGNRDESPSINHQMAQEDAQRLYQAGEGRLGTDESCFNMILATRSFPQLRATMEAYSRMANRDLLSSVSREFSGYVESGLKTILQCALNRPAFFAERLYYSMKGAGTDDSTLVRIVVTRSEIDLVQIKQMFTQMYQKTLSTMIASDTSGDYRKLLLAIVGQ
